1 substance from patent publication US20140322240A1 can be followed below.

Amino acid sequences for entries named in this document (tags omitted). A change or cut given only in a name is not applied to a line headed by its entry. Chains listed by the source or under a name are the forms on record and can include a tag or linker.
human IgM (P01871, form named): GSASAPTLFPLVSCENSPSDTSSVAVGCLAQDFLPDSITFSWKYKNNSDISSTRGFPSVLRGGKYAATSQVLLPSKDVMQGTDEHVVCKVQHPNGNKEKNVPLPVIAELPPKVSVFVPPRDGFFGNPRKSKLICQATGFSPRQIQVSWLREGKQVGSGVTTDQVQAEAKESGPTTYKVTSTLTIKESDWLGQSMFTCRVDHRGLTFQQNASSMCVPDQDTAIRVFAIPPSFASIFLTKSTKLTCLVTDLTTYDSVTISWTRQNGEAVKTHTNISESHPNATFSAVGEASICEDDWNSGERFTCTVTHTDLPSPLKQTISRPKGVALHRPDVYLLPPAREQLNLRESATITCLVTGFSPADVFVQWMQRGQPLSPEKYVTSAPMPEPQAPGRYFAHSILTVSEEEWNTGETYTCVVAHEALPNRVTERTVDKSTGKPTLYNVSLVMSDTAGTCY

This assay has as its target PfEMP1 variant TM284var1 (Plasmodium falciparum (strain TM284)). Description: IFA with an anti-human IgM monoclonal antibody on infected erythrocytes.

No constants are given. Whether binding was seen depends on the method and setting. Some entries that bind do so weakly or less than the wild type.

“human IgM (from UniProt P01871 1-453) (antibody)”: the binding result was “binds”.
